Reference: US10761045B2, “Sensor, sensor system, method of manufacturing sensor, and method of measuring concentration of target substance” (PHC Holdings Corporation, priority 2010, dated 2020)

Assays:
[1] = Storage stability of reagent solution (response current of sensors made with stored vs fresh reagent solution); assay type: physicochemical
Text: A sensor having the configuration illustrated in FIG. 1 was manufactured. The detailed procedure will now be described. First, by sputtering palladium, 8 nm-thick conductive layer 3 was deposited on substrate 2 which was 30 mm in length, 7 mm in width and 0.2 mm in thickness and which contained polyethylene terephthalate as its main component. Thereafter, a 0.1 mm-width non-conductive track was formed by laser ablation, to form electrodes 31 to 33. Electrode 31 was designed to function as a working electrode, electrode 32 as a counter electrode, and electrode 33 as a sensing electrode.
Using a microsyringe, 1.2 μL of each reagent solution was applied to form reagent layer 4 in a shape of 2.2 mm diameter-circular. After formation of reagent layer 4, spacer 5 (0.145 mm thick) having a cut-out with a length of 3.4 mm a width of 1.2 mm and cover 6 were sequentially attached to the substrate having the electrodes formed thereon. In this way a sensor was manufactured that has a capillary having a volume of 0.6 μL. […]
Response current values of each sensor were measured using a series of glucose solutions of known concentrations. […]

[2] = Stability test (exposure test) of sensor at 30° C., 80% humidity; conditions: additive in reagent layer; additive conc. 1.0-5.0 mM

Structure (SMILES): NCCC[C@H](N)C(=O)O [Ornithine, reference compound]
- Reagent solution stability % change in response current value between before and after 24 hours storage at 25° C. [1]: −19%
- Sensor stability % change in response current value between before and after 24 hours exposure at 30° C. and 80% humidity [2]: −22%
